# Laboratory results: patent US11020408B2, “Polymer composed of repeat units having a biologically active molecule attached thereto via a pH-sensitive bond” (SPIREA LIMITED, priority 2014, dated 2021)
# At least one compound was matched to its structure with a doubt left.
# System: Mycobacterium bovis BCG-lux grown in human monocyte-derived macrophages
# Assay type: cell-based
compound,measurement,value
"CO[C@H]1/C=C/O[C@@]2(C)Oc3c(C)c(O)c4c(O)c(c(/C=N/N5CCN(C)CC5)c(O)c4c3C2=O)NC(=O)/C(C)=C\C=C\[C@H](C)[C@H](O)[C@@H](C)[C@@H](O)[C@@H](C)[C@H](OC(C)=O)[C@@H]1C [RIF, rifampicin]",antimycobacterial effect (in words),did not induce a significant antimycobacterial effect
